Patent US5631230A (priority 1994, dated 1997)
Non-standard residues stand in square brackets, D forms with d. NMeNle = CCCC[C@H](NC)C(=O)O

Experiment: general procedure: Boc solid-phase peptide synthesis; p-methylbenzhydrylamine (PMBHA) resin, substitution 1.0 mmol/g; DCC/HOBt

Substance | step yield (late stage modification step) [% yield] | step yield (purification step) [% yield] | crude mass (whole synthesis) [mg] | isolated mass (whole synthesis) [mg]
H-Asp-Tyr-N-MeNle-Gly-Trp-N-MeNle-Asp-Phe-NH2 Bis-SO3^θ | 33 |  |  | 
H-GW[NMeNle]DF-NH2 |  | 10 | 600 | 400
